From the supplement of paper PMC10849652
Some of the results follow. Residues, ends and D or L forms follow the SMILES beside them. *: point of attachment. Cbz = O=C(OCc1ccccc1)*

Chains of the proteins cited; added tags and fusions are not shown. Lines headed by an entry give the natural chain unless they say otherwise; changes in a name come on top.
UniProt Q9UBU8, whole entry, looked up: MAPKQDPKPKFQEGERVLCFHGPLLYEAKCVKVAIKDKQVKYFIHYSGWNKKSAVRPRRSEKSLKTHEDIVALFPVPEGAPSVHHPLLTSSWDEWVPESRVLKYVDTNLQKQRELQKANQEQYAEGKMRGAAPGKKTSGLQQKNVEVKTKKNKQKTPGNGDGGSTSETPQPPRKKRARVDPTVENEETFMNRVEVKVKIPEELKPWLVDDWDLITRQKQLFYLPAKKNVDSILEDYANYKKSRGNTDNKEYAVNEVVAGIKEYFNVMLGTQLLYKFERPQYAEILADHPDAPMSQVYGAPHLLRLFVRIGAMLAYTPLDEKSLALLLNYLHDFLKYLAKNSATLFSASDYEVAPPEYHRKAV
UniProt Q9Y3A3: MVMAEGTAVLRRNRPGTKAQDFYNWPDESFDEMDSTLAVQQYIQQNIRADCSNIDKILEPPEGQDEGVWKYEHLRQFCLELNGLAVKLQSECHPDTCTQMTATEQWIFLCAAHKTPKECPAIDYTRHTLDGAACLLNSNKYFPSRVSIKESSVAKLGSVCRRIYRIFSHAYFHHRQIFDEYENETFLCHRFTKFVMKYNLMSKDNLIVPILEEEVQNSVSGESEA
UniProt O95297: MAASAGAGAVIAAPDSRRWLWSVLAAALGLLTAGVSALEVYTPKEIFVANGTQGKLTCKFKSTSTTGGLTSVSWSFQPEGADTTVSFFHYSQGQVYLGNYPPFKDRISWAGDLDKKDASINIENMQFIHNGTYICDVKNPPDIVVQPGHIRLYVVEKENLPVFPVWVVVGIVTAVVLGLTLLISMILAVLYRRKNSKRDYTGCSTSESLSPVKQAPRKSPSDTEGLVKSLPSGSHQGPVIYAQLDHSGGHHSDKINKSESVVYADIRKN
UniProt Q13724: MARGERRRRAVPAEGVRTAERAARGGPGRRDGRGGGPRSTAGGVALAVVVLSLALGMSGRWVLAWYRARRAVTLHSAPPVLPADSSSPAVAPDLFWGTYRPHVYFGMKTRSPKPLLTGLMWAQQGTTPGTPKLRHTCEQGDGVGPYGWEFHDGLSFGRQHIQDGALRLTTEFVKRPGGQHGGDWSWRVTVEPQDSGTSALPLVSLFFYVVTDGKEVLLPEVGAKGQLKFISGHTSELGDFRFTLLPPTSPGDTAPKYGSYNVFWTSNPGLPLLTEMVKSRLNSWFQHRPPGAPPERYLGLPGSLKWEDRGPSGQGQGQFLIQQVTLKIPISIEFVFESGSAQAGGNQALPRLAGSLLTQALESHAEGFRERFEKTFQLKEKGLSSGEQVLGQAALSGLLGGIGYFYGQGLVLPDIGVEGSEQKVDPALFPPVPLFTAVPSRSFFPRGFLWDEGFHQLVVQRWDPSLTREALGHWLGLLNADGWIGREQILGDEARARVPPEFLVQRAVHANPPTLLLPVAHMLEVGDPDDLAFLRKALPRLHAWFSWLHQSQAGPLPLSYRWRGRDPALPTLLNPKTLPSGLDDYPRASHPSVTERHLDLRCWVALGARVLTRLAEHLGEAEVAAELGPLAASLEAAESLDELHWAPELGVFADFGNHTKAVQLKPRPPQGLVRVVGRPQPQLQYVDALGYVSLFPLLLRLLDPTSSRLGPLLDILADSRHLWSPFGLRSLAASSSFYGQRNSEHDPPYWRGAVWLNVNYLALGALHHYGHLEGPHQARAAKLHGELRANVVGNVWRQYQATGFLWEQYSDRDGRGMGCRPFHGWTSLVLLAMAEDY
UniProt O95822: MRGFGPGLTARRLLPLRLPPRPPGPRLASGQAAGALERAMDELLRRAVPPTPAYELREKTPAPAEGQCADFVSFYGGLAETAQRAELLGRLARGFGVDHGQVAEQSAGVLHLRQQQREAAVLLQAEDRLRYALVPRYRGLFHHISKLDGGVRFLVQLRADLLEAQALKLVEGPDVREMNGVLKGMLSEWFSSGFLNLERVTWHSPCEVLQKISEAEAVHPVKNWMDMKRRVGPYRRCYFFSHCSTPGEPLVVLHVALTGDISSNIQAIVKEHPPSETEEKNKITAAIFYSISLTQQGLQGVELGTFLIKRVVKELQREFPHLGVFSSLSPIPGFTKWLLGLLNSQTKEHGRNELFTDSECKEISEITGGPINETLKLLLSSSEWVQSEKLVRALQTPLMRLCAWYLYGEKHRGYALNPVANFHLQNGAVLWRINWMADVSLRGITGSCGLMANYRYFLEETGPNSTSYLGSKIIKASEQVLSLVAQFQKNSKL
UniProt Q03111: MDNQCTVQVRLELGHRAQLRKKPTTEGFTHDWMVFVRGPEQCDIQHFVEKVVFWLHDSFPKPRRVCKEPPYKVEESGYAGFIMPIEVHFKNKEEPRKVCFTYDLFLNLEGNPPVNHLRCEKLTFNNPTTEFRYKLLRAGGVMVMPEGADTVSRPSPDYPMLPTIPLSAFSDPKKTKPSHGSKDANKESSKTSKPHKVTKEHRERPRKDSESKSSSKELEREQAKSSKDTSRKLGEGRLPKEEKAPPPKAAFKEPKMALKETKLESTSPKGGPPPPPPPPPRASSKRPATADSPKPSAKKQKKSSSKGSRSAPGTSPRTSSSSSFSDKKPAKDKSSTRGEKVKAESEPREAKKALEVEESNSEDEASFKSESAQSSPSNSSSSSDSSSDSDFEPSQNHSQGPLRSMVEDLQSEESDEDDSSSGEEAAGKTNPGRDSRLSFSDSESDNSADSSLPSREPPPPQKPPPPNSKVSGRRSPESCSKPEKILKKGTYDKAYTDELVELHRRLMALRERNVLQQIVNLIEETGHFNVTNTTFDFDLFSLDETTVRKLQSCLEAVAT
UniProt P25325: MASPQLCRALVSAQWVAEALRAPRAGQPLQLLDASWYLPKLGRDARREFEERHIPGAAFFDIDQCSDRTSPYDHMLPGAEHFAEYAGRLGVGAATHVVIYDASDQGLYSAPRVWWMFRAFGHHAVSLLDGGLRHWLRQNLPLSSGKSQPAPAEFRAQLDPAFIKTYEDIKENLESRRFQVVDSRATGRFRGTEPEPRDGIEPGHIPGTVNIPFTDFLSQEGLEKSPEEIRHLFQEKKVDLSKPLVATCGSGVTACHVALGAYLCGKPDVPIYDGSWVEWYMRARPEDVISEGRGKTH
UniProt Q96EN8: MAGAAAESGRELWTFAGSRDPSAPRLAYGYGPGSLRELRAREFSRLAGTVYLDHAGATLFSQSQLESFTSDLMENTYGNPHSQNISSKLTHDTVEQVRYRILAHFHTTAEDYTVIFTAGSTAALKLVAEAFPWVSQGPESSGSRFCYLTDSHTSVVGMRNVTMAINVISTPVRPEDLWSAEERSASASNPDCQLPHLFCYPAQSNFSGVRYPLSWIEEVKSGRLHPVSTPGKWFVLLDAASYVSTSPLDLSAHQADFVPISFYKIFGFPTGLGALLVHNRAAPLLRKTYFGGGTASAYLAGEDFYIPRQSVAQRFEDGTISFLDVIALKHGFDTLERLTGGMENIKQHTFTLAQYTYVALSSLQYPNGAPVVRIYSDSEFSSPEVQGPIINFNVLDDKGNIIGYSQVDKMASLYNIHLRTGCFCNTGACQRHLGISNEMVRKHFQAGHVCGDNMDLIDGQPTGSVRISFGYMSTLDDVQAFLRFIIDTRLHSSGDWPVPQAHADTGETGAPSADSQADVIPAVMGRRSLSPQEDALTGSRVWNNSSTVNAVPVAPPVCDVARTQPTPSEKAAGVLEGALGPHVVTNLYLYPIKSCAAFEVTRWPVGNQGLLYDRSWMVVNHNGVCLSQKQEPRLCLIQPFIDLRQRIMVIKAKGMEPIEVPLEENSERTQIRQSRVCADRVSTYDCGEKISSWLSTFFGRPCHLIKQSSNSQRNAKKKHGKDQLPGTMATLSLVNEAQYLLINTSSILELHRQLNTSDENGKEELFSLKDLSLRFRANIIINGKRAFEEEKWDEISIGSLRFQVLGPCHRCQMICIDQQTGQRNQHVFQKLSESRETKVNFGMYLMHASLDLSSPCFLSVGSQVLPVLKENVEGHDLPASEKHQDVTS
UniProt Q9NV56, whole entry, looked up: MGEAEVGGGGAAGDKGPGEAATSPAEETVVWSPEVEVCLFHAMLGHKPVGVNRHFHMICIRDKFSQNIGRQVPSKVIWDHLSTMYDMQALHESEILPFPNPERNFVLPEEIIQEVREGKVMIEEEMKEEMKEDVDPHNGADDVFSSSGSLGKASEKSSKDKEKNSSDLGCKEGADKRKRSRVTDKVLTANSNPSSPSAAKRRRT

Experiments:
Test in all cases: log2 fold change, soluble protein after heating vs DMSO (PISA); higher = thermal stabilisation; K562 cells, 10 uM, 30 min; active = over 0.2 and 3.5 SD of the protein, either way, in both replicates (recomputed)
erlotinib = compound: C#Cc1cccc(Nc2ncnc3cc(OCCOC)c(OCCOC)cc23)c1 [erlotinib]
Procedure, shortened: (§1)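 Soluble protein was quantified by TMTpro 16plex LC-MS/MS after channel sums were equalised. It was obtained as the supernatant after 21,000xg for 90 min from pooled aliquots of K562 cells (2×10^6 cells/mL, 10 μM compound, 30 min) heated for 3 min across 48°C-58°C and extracted in PBS with 0.5% NP-40 at 4°C. Thermal stability values are relative to control samples and come from duplicates. They are given as log2 fold changes.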

[1] = compound: C/C(=N\NC(=O)C1=CC(=CC=C1)S(=O)(=O)N2CCOCC2)/C3=C(C=CC(=C3)Cl)O
Procedure, shortened: as §1

[2] = compound: C1=CC(=C(C=C1Cl)C2=NC3=NC=CN=C3C(=N2)NC4=CC=NC=C4)F
Procedure, shortened: as §1

[3] = compound: C1=CC(=CC=C1C2=NC3=C(N2)C=C(C=C3)C(=O)N)OC4=CC=C(C=C4)Cl
Procedure, shortened: as §1

[4] = compound: C1=CC2=C(C=CC(=C2)/C=C\3/C(=O)NC(=NCC4=CC=CS4)S3)N=C1
Procedure, shortened: as §1

[5] = compound: C1=CC2=NC=CN=C2C=C1/C=C/3\C(=O)NC(=O)S3
Procedure, shortened: as §1

[6] = compound: C1=CC=C(C=C1)C2=NC(=C(N2)C3=CC=NC=C3)C4=CC(=C(C=C4)Cl)O
Procedure, shortened: as §1

[7] = compound: C1=CC=C2C(=C1)C3=NNC4=CC=CC(=C43)C2=O
Procedure, shortened: as §1

[8] = compound: C1CCN(C1)C(=O)NC2=CC=CC(=C2)NC3=NC=C(C(=N3)NCCC4=CN=CN4)Br
Procedure, shortened: as §1

[9] = compound: C1CN(CCC1(CC2=CC=C(C=C2)Cl)N)C3=NC=NC4=C3C=CN4
Procedure, shortened: as §1

IRAK-1-4 Inhibitor I = compound: C1COCCN1CCN2C3=CC=CC=C3N=C2NC(=O)C4=CC(=CC=C4)[N+](=O)[O-] [IRAK-1-4 Inhibitor I]
Procedure, shortened: as §1

ibrutinib = compound: C=CC(=O)N1CCC[C@@H](n2nc(-c3ccc(Oc4ccccc4)cc3)c3c(N)ncnc32)C1 [ibrutinib]
Procedure, shortened: as §1

[10] = compound: CC(=O)c1cnc2ccc(-c3cc(Cl)c(O)c(Cl)c3)nc2c1N[C@H]1CC[C@H](CN(C)C)CC1
Procedure, shortened: as §1

ralimetinib = compound: CC(C)(C)Cn1c(N)nc2ccc(-c3[nH]c(C(C)(C)C)nc3-c3ccc(F)cc3)nc21 [ralimetinib]
Procedure, shortened: as §1

[11] = compound: CC(C)(O)CC(=O)NCCn1ccc2ncnc(Nc3ccc(Oc4cccc(C(F)(F)F)c4)c(Cl)c3)c21
Procedure, shortened: as §1

[12] = compound: CC(C)C1=C2N=C(C=C(N2N=C1)NCC3=CC=CC=C3)NCCCCCCN
Procedure, shortened: as §1

[13] = compound: CC(C)C[C@@H](C=O)NC(=O)[C@H](CC(C)C)NC(=O)[C@H](CC(C)C)NC(=O)OCc1ccccc1
Procedure, shortened: as §1

pinometostat = compound: CC(C)N(C[C@H]1O[C@@H](n2cnc3c(N)ncnc32)[C@H](O)[C@@H]1O)[C@H]1C[C@@H](CCc2nc3cc(C(C)(C)C)ccc3[nH]2)C1 [pinometostat]
Procedure, shortened: as §1

[14] = compound: CC1=C(C(CC(=O)N1)C2=CC=C(C=C2)C(F)(F)F)C(=O)NC3=C(C=C4C(=C3)C=NN4)F
Procedure, shortened: as §1

[15] = compound: CC1=C(C2=C(C=C1)C(=O)C3=CC=CC=C3N2CCCN)C
Procedure, shortened: as §1

Measured: log2 fold change

MRPL12 (UniProt P52815)
inactive: erlotinib -0.068 | [1] -0.06 | [2] 0.179 | [3] -0.005 | [4] 0.036 | [5] 0.095 | [6] 0.018 | [7] 0.068 | [8] -0.071 | [9] -0.101 | IRAK-1-4 Inhibitor I -0.046 | ibrutinib -0.016 | [10] 0.001 | ralimetinib -0.049 | [11] -0.081 | [12] 0.014 | [13] -0.027 | pinometostat -0.054 | [14] 0.002 | [15] 0.221

MORF4L1 isoform 2 (UniProt Q9UBU8)
inactive: erlotinib 0.026 | [1] 0.007 | [2] -0.059 | [3] -0.021 | [4] 0.005 | [5] 0.008 | [6] -0.016 | [7] -0.01 | [8] -0.053 | [9] 0.021 | IRAK-1-4 Inhibitor I -0.001 | ibrutinib 0.008 | [10] -0.01 | ralimetinib -0.006 | [11] -0.102 | [12] 0.013 | [13] 0.151 | pinometostat 0.062 | [14] -0.013 | [15] -0.018

MRPL11 (UniProt Q9Y3B7)
inactive: erlotinib -0.148 | [1] -0.135 | [2] -0.183 | [3] 0.149 | [4] -0.025 | [5] -0.013 | [6] 0.047 | [7] 0.142 | [8] 0.016 | [9] -0.195 | IRAK-1-4 Inhibitor I -0.154 | ibrutinib 0.009 | [10] 0.063 | ralimetinib 0.074 | [11] 0.031 | [12] -0.021 | [13] 0.043 | pinometostat 0.108 | [14] 0.037 | [15] -0.074

MOB4 (UniProt Q9Y3A3)
inactive: erlotinib -0.056 | [1] 0.03 | [2] 0.069 | [3] 0.014 | [4] 0.009 | [5] 0.039 | [6] -0.004 | [7] -0.037 | [8] 0.024 | [9] 0.045 | IRAK-1-4 Inhibitor I 0.006 | ibrutinib -0.032 | [10] -0.081 | ralimetinib 0.011 | [11] -0.05 | [12] 0.031 | [13] 0.01 | pinometostat -0.006 | [14] -0.039 | [15] 0.035

MPZL1 (UniProt O95297)
inactive: erlotinib 0.019 | [1] 0.005 | [2] -0.044 | [3] 0 | [4] -0.022 | [5] 0.022 | [6] 0.006 | [7] -0.037 | [8] -0.015 | [9] -0.001 | IRAK-1-4 Inhibitor I 0.045 | ibrutinib 0.015 | [10] 0.011 | ralimetinib -0.096 | [11] -0.01 | [12] 0.175 | [13] 0.069 | pinometostat -0.029 | [14] -0.039 | [15] 0.04

MRPL44 (UniProt Q9H9J2)
inactive: erlotinib -0.186 | [1] -0.094 | [2] -0.129 | [3] 0.088 | [4] -0.101 | [5] -0.026 | [6] 0.034 | [7] 0.137 | [8] -0.004 | [9] -0.228 | IRAK-1-4 Inhibitor I -0.151 | ibrutinib -0.027 | [10] 0.108 | ralimetinib 0.124 | [11] 0.013 | [12] -0.006 | [13] 0.048 | pinometostat 0.124 | [14] -0.031 | [15] -0.075

Two neighbouring records out of the list so far, quoted:
MRPL12 (UniProt P52815)
inactive: erlotinib -0.068 | [1] -0.06 | [2] 0.179 | [3] -0.005 | [4] 0.036 | [5] 0.095 | [6] 0.018 | [7] 0.068 | [8] -0.071 | [9] -0.101 | IRAK-1-4 Inhibitor I -0.046 | ibrutinib -0.016 | [10] 0.001 | ralimetinib -0.049 | [11] -0.081 | [12] 0.014 | [13] -0.027 | pinometostat -0.054 | [14] 0.002 | [15] 0.221

MORF4L1 isoform 2 (UniProt Q9UBU8)
inactive: erlotinib 0.026 | [1] 0.007 | [2] -0.059 | [3] -0.021 | [4] 0.005 | [5] 0.008 | [6] -0.016 | [7] -0.01 | [8] -0.053 | [9] 0.021 | IRAK-1-4 Inhibitor I -0.001 | ibrutinib 0.008 | [10] -0.01 | ralimetinib -0.006 | [11] -0.102 | [12] 0.013 | [13] 0.151 | pinometostat 0.062 | [14] -0.013 | [15] -0.018

More results follow:

MOGS (UniProt Q13724)
inactive: erlotinib -0.038 | [1] 0.003 | [2] -0.044 | [3] 0.02 | [4] 0.019 | [5] -0.007 | [6] 0.027 | [7] 0.015 | [8] -0.02 | [9] -0.05 | IRAK-1-4 Inhibitor I -0.06 | ibrutinib -0.013 | [10] 0.026 | ralimetinib 0.021 | [11] 0.017 | [12] -0.118 | [13] 0.012 | pinometostat 0.062 | [14] -0.016 | [15] 0.057

MRPL23 (UniProt Q16540)
inactive: erlotinib -0.078 | [1] -0.075 | [2] -0.116 | [3] 0.056 | [4] -0.041 | [5] -0.028 | [6] 0.041 | [7] 0.147 | [8] 0.042 | [9] -0.191 | IRAK-1-4 Inhibitor I -0.111 | ibrutinib -0.008 | [10] 0.078 | ralimetinib 0.059 | [11] 0.028 | [12] 0.058 | [13] 0.151 | pinometostat 0.126 | [14] 0.018 | [15] -0.046

MLYCD (UniProt O95822)
inactive: erlotinib 0.022 | [1] 0.026 | [2] 0.083 | [3] -0.012 | [4] -0.076 | [5] 0.061 | [6] 0.073 | [7] 0.012 | [8] -0.04 | [9] 0.047 | IRAK-1-4 Inhibitor I 0.054 | ibrutinib -0.074 | [10] 0.075 | ralimetinib 0.043 | [11] -0.02 | [12] -0.036 | [13] -0.065 | pinometostat -0.003 | [14] -0.048 | [15] -0.041

MRPL53 (UniProt Q96EL3)
inactive: erlotinib -0.045 | [1] -0.023 | [2] -0.226 | [3] 0.086 | [4] -0.095 | [5] 0.02 | [6] 0.017 | [7] 0.079 | [8] -0.055 | [9] -0.09 | IRAK-1-4 Inhibitor I -0.095 | ibrutinib -0.05 | [10] 0.034 | ralimetinib 0.042 | [11] -0.004 | [12] -0.006 | [13] 0.046 | pinometostat 0.106 | [14] 0.044 | [15] 0.031

MLLT1 (UniProt Q03111)
inactive: erlotinib 0.012 | [1] -0.053 | [2] -0.082 | [3] 0.027 | [4] 0.094 | [5] 0.002 | [6] 0.014 | [7] -0.061 | [8] 0.109 | [9] -0.074 | IRAK-1-4 Inhibitor I -0.017 | ibrutinib 0.063 | [10] -0.156 | ralimetinib 0.05 | [11] -0.004 | [12] -0.124 | [13] 0.144 | pinometostat 0.024 | [14] 0.154 | [15] -0.133

MPST isoform 2 (UniProt P25325)
inactive: erlotinib 0.001 | [1] 0.027 | [2] 0.042 | [3] -0.065 | [4] 0.095 | [5] -0.023 | [6] 0.026 | [7] 0.024 | [8] -0.006 | [9] -0.01 | IRAK-1-4 Inhibitor I 0.198 | ibrutinib -0.03 | [10] -0.031 | ralimetinib -0.007 | [11] 0.009 | [12] 0.044 | [13] 0.04 | pinometostat -0.065 | [14] -0.083 | [15] 0.085

MRPL41 (UniProt Q8IXM3)
inactive: erlotinib -0.204 | [1] -0.137 | [2] -0.19 | [3] 0.052 | [4] -0.092 | [5] -0.053 | [6] -0.041 | [7] 0.162 | [8] 0.005 | [9] -0.221 | IRAK-1-4 Inhibitor I -0.085 | ibrutinib 0 | [10] 0.055 | ralimetinib 0.01 | [11] 0.059 | [12] 0.07 | [13] 0.058 | pinometostat 0.161 | [14] -0.014 | [15] -0.026

MOCOS (UniProt Q96EN8)
inactive: erlotinib 0 | [1] 0.037 | [2] -0.044 | [3] 0.051 | [4] -0.049 | [5] 0.028 | [6] 0.023 | [7] -0.016 | [8] 0.029 | [9] 0.016 | IRAK-1-4 Inhibitor I 0.039 | ibrutinib 0.031 | [10] 0.003 | ralimetinib -0.074 | [11] -0.036 | [12] 0.076 | [13] 0.072 | pinometostat 0.063 | [14] -0.045 | [15] 0.025

MRGBP (UniProt Q9NV56)
inactive: erlotinib -0.052 | [1] 0.003 | [2] 0.022 | [3] 0.014 | [4] -0.036 | [5] -0.03 | [6] -0.012 | [7] -0.074 | [8] 0.003 | [9] 0.042 | IRAK-1-4 Inhibitor I 0.03 | ibrutinib -0.01 | [10] -0.017 | ralimetinib 0.067 | [11] 0.009 | [12] -0.047 | [13] 0.008 | pinometostat -0.032 | [14] 0.052 | [15] -0.092

MRPL4 (UniProt Q9BYD3)
inactive: erlotinib -0.136 | [1] -0.112 | [2] -0.064 | [3] 0.138 | [4] -0.071 | [5] -0.028 | [6] 0.026 | [7] 0.045 | [8] 0.024 | [9] -0.069 | IRAK-1-4 Inhibitor I -0.06 | ibrutinib -0.003 | [10] 0.062 | ralimetinib 0.113 | [11] -0.003 | [12] -0.026 | [13] 0.022 | pinometostat 0.123 | [14] 0.092 | [15] -0.111
